# Primary screen of a compound library

The chains behind the UniProt entries cited, without tags or fusion partners.
UniProt P9WPC5, whole entry: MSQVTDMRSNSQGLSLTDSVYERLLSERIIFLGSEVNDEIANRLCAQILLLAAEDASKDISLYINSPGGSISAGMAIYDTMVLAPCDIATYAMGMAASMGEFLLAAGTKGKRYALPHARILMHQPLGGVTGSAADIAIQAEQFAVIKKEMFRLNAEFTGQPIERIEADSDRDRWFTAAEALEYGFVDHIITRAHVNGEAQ
UniProt P9WPC3, whole entry partner: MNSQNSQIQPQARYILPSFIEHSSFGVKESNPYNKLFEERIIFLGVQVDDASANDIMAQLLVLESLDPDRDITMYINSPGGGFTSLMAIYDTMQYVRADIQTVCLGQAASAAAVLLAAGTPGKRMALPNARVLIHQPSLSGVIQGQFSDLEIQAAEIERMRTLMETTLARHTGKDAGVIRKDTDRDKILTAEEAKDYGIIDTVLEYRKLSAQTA
UniProt I6X8D2, whole entry: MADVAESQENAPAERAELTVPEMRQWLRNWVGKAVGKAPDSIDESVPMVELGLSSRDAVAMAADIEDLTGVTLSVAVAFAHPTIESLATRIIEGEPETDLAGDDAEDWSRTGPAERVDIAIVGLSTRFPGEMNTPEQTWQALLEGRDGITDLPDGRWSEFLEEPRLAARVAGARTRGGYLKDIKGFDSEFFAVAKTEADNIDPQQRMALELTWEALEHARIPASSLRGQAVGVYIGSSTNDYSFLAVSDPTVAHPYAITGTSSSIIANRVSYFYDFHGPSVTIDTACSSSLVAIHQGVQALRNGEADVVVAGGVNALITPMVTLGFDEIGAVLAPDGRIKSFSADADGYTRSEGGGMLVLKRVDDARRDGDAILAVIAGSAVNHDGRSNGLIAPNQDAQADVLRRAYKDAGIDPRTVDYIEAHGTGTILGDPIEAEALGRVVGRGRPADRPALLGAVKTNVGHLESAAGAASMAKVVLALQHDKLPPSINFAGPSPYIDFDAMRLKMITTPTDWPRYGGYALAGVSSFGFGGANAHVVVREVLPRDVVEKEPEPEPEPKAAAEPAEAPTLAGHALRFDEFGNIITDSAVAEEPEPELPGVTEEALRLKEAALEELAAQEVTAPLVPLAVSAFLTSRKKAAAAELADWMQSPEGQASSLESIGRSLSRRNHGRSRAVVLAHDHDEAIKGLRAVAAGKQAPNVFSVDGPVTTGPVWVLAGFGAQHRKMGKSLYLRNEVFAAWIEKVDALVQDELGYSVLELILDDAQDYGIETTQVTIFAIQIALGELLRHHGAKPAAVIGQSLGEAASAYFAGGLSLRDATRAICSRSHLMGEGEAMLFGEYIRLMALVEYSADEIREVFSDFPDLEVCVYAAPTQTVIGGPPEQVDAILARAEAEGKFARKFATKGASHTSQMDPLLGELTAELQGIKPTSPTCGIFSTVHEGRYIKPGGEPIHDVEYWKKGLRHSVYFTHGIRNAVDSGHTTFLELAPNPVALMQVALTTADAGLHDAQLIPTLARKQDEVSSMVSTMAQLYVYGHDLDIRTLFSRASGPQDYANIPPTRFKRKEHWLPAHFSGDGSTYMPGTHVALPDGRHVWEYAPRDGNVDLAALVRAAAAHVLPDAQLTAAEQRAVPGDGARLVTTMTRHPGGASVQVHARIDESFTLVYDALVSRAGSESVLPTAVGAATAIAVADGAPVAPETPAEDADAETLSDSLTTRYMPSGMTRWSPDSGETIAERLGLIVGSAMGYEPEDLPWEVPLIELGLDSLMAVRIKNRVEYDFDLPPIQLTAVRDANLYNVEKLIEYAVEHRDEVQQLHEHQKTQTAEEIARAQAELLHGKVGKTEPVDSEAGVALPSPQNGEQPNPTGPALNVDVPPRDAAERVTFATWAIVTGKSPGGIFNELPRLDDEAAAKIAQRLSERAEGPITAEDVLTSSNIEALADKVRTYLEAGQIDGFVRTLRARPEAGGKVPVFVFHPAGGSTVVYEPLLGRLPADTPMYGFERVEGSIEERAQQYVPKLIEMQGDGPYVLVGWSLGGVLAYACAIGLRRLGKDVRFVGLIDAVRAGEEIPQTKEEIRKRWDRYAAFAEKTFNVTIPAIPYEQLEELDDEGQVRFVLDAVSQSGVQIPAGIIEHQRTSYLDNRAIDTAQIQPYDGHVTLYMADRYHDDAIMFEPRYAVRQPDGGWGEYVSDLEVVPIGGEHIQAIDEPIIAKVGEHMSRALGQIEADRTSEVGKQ
UniProt P9WFT3, whole entry: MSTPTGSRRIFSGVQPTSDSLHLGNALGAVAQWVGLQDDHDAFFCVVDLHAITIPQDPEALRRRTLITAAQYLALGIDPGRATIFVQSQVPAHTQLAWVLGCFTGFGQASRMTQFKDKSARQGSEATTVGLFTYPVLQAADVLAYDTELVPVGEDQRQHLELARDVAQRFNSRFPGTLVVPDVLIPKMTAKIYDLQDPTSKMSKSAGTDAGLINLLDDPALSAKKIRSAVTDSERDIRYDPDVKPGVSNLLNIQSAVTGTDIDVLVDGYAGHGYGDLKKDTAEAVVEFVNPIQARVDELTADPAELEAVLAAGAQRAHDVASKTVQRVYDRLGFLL

ClpP1P2: 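Protease assay of ClpP1P2, read by the AMC dye that it sets free. Target: ClpP1P2, Mycobacterium tuberculosis (UniProt P9WPC5 and UniProt P9WPC3). Compounds at 50 µM. Higher reads as stronger inhibition, judged from the few compounds that gave an IC50. Most other retested compounds had strongly negative values. Of about 69,000 compounds tested this way, about 10 (0.015%) reached 50% or more in at least one test.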
Pks13 thioesterase: 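Polyketide synthase Pks13, Mycobacterium tuberculosis (UniProt I6X8D2). Enzyme assay of the thioesterase domain of polyketide synthase 13; the read-out is not stated. Concentration: 30 µM. Higher reads as stronger inhibition (inferred from which compounds were picked for retests). Size under these conditions: about 67,000 compounds, about 300 of them at 50% or above in at least one test.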
MtTrpRS: 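Tryptophan-tRNA ligase, Mycobacterium tuberculosis (UniProt P9WFT3). Enzyme assay of tryptophanyl-tRNA synthetase; the read-out is not stated. Compounds at 10 µM. Higher most likely means stronger inhibition; the record gives no direction and few retests gave an IC50. About 65,000 compounds were tested under these conditions; 0.098% (about 64) showed 50% or more at least once.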

The filed quantity is “Percent Effect” (%). How 0% and 100% were set is not recorded. Most values in the screen are low, and negative values occur. This is an unselected part of the compounds tested. A dash means the value is not listed here; it may have been measured.

compound | ClpP1P2 | Pks13 thioesterase | MtTrpRS
CCS(=O)(=O)CC(=O)NCC1(c2c(F)cccc2F)CCCC1 | 2.674 | -1.459 | 2.385
Cc1ccc(-c2cn[nH]c2C2CCCN(c3nccc(N)n3)C2)cc1 (centres undefined) | -4.605 | -40.68 | 1.896
CCn1cc(CN2CCN(CC(O)c3cc(C)ccc3C)CC2)c(C)n1 (centres undefined) | -4.741 | -3.78 | -1.098
Cc1nc2sccn2c1C(=O)N1CCc2c(nc(N)[nH]c2=O)C1 | -5.808 | -23.86 | 1.149
COc1ccc(C(=O)Nc2cccc(C(N)=O)c2)c(OC)n1 | 11.6 | -1.008 | -
CSCCC(NC(N)=O)C(=O)Nc1ccc(-n2cccn2)nc1 (centres undefined) | -3.814 | -29.24 | -3.043
N#Cc1cccc(C(=O)N2CCC(Nc3cccnn3)CC2)c1 | -19.41 | -9.584 | -6.426
O=C(Cc1ccccn1)N1CCC2(CC1)CN(c1ccccn1)CCO2 | -3.658 | -21.3 | -0.183
CN(Cc1ccccn1)CC1CCCN1c1cccnn1 (centres undefined) | -44.1 | -11.21 | -1.881
CCn1ncc2c1C(COCC1CC1)N(Cc1nccs1)CC2 (centres undefined) | -4.017 | -9.225 | -1.481
COc1cccc(N2CCN(Cc3ccc4ccn(C)c4c3)CC2=O)c1 | -8.602 | -1.623 | 6.016
Cc1cnc(C(=O)N2CCOCC2C)cn1 (centres undefined) | -3.876 | -1.385 | 1.152
O=C(CC(F)(F)F)N1C[C@H]2CN(CC3CC3)C(=O)[C@H]2C1 | -15.21 | -30.72 | -1.374
CCc1ccc(N2CCC(NS(=O)(=O)N(CC)CC)CC2)cc1 | -4.001 | -69.13 | -2.761
NC(=O)C1(c2cnccn2)CCCN1Cc1ccncc1 (centres undefined) | 1.392 | 26.11 | -
N#Cc1cn(C2CC2)c(=O)n(CC(O)c2ccc(F)cc2)c1=O (centres undefined) | -5.504 | -20.57 | 4.16
Cn1cc(N2CC3(CCN(Cc4ccsc4)CC3)OCC2=O)cn1 | 4.708 | -4.293 | 1.744
CCOc1ccc(C2CC(=O)Nc3c2c(=O)nc2sccn32)cc1 (centres undefined) | 3.769 | -18.34 | 6.633
CCCOc1cc(C)ccc1NC(=O)NCCNC(C)=O | 3.015 | -29.53 | -2.151
Cc1ncc2c(n1)CN(CC(=O)Nc1nccs1)CC2 | -19.01 | -5.484 | -6.09
CN(CCC(O)c1ccccc1)c1cc(C2CC2)ncn1 (centres undefined) | -3.034 | -36.16 | -5.236
CN(C)Cc1cncc2c1CCN(C1CCOCC1)C2 | 16.06 | -8.152 | -
O=C(NCc1cnc2n1CCN(CC1CC1)C2)C1CC1 | -9.585 | -46.41 | 11.52
COc1ccsc1C(=O)NC1CCN(c2cccc(F)c2)CC1 | 17.84 | -5.55 | 2.422
CCNC(=O)[C@@H]1C[C@@H](N)CN1C(=O)Cc1cc(C)ccc1C | -2.168 | -15 | -2.991
Cc1noc(C)c1C(C)C(=O)N1CCCN(C)c2ccc(Cl)cc21 (centres undefined) | 1.636 | -14.81 | -4.32
CCN(CC)C(=O)c1cnc(Sc2nccn2C)c(Cl)c1 | 1.839 | -25.06 | -1.767
COc1ccc(F)cc1S(=O)(=O)NCCn1cnc(C)cc1=O | -13.29 | -12.54 | -0.1898
OCC1CCCN(c2ncnc3c2Cc2ccccc2OC3)C1 (centres undefined) | -25.83 | 11.49 | 13.02
O=C(c1ccco1)N1C(CO)[C@]2(O)CC[C@H]1CC2 (some centres undefined) | -1.455 | 22.14 | -
Cc1ccsc1CN(C)C(=O)Cn1nc(-c2ccc(F)cc2)oc1=O | 9.589 | -23.09 | -2.013
CC(C)CC(NC(=O)c1cc(-c2cccn2C)n[nH]1)c1ncnn1C (centres undefined) | -14.37 | 3.271 | -0.06915
Cc1cnn(C2CCCN(C(=O)Cc3ccc4c(c3)CCO4)C2)c1 (centres undefined) | -11.93 | -25.15 | 15.55
CCOc1ccc(-c2c(-c3ccccc3)ncn2C2CCNC2)cn1 (centres undefined) | 2.458 | -41.21 | -5.456
O=C1O[C@@H]2CN(C3CCOCC3)C[C@@H]2N1CCc1cccc(Cl)c1 | -11.83 | -9.81 | -1.859
CNc1nc(C(=O)N2CCCC(CO)(CCCOC)C2)cs1 (centres undefined) | -20.7 | -12.13 | -1.806
CSCc1noc(Cn2ccc3ccccc3c2=O)n1 | -1.479 | 2.289 | 1.102
Cc1oc(-c2ccccc2)nc1CC(=O)NC1=NCCS1 | 16.48 | -18.99 | -1.421
O=C(NCC1CC1)C1CN(Cc2ccncc2)Cc2ccnn2C1 (centres undefined) | -9.669 | -8.122 | -9.309
CCn1ncc(C(=O)NCCc2nc(-c3ccc(C)cc3)n[nH]2)c1C | -4.908 | 9.89 | -3.329
CCCc1cc(=O)[nH]c2nnc(SCC(=O)NCc3ccc(C)cc3)n12 | 5.367 | -3.616 | -4.633
COc1ccc(-c2cc(C3CCNCC3)nc(C)n2)cc1 | -3.29 | 15.07 | -4.052
C[C@@H]1CN(C(=O)c2ccc(Br)cc2F)CC(C(N)=O)O1 (some centres undefined) | -2.203 | -20.56 | -0.819
Cc1nnsc1C(=O)N1CCN(C(=O)C2CCC2)[C@@H]2CS(=O)(=O)C[C@@H]21 | 1.292 | - | -2.801
O=C(NCc1nnc2n1CCCCC2)N(Cc1ccccn1)C1CC1 | -16.08 | 6.159 | -5.379
CCOCc1nc2c(c(N3CC=CC3)n1)CCN(C1CCOCC1)CC2 | -3.631 | -27.59 | 4.87
CSc1ccc(C)c(C(=O)N2CCCC(n3cncn3)C2)c1 (centres undefined) | 0.9806 | -27.29 | 3.578
CN(C)C(=O)C1CCc2nnc(C(C)(C)C)n21 (centres undefined) | 13.48 | -37.01 | -4.581
Cc1cccc2[nH]c(C3CCCN3Cc3ccc(CO)o3)nc12 (centres undefined) | 3.649 | -21.89 | 0.3749
CN1CCCC(N(C)C(=O)c2ccc(NC(=O)c3cc[nH]n3)cc2)C1 (centres undefined) | -3.45 | 1.112 | 0.06915
O=S(=O)(NCC1(O)CCOc2ccccc21)c1ccc(Cl)s1 (centres undefined) | -9.378 | -20.33 | 3.284
O=C1CC(N(C(=O)CCc2cc(F)ccc2F)C2CC2)C(=O)N1 (centres undefined) | -3.346 | -4.69 | 4.552
CCOc1ccc(-c2c(C#N)c(N)nc3c2COCC3)cn1 | -1.316 | -1.399 | 0.9646
COC(=O)C(C)N(Cc1cc(=O)n(C)c(=O)n1C)C1CC1 (centres undefined) | -2.203 | -19.85 | 4.107
Cc1cnn(CC2CCCN2C(=O)c2ccc(OC(C)C)nc2)c1 (centres undefined) | 1.536 | 4.999 | -3.341
Cc1cnn(Cc2cc(F)ccc2F)c1NC(=O)C1CCOCC1 | 2.714 | 1.755 | -4.471
CC(C)C(C)(O)CNc1cccc(F)c1C#N (centres undefined) | -9.287 | -19.32 | 0.3882
Cc1cc(-c2cc(C3CCOC3)c(C#N)c(N)n2)ccc1Cl (centres undefined) | -8.363 | -87.59 | 0.243
COCC1CN(Cc2ccoc2)Cc2nn(CC3CC3)cc21 (centres undefined) | 19.16 | 6.429 | -2.075
N#Cc1ccc(OCCn2cccn2)cc1 | -7.679 | -3.626 | -1.627
Cc1nn(C)c2ncnc(NCC(O)CN3CCCCC3)c12 (centres undefined) | -3.56 | -9.875 | -2.21
COC(=O)CNC(=O)c1scnc1C | -7.731 | -29.29 | 0.1971
O=C1CCC2(CCN(Cc3cscn3)CC2)CN1CC1CCCO1 (centres undefined) | -16.17 | -1.889 | 2.824
O=C(Cc1cccc(F)c1)NCCNCc1ccc2c(c1)CCO2 | -1.227 | -15.84 | 0.5596
COCC(O)CN(C)C(=O)NC1CCN(S(C)(=O)=O)CC1 (centres undefined) | 1.47 | -19.09 | -5.393
CCc1nc(Cn2nc(COC)oc2=O)cs1 | -0.5562 | -27.48 | -2.415
O=C1N(Cc2ccc(F)c(F)c2)CCCC1(O)CNCc1ccccn1 (centres undefined) | -23.84 | -14.54 | 0.4519
Cc1ccc(C(=O)NC2CCN(C(=O)NCc3ccccn3)CC2)o1 | -77.07 | -11.31 | -1.63
CCCc1n[nH]c(C2CN(CCNC3CCCCC3)CCO2)n1 (centres undefined) | -5.74 | -16.49 | 1.475
Cc1ccc(CN2CC[C@H](O)[C@@H](n3ccc(=O)[nH]c3=O)CC2)cc1 | -2.718 | -10.54 | -

Data taken from ChEMBL document CHEMBL3988442, “University of Dundee, Small-Polar-MMV Screening Library” (2021).